In PubChem BioAssay AID248 (DTP/NCI, 2004) one finds survivor count and T/C data, which are given here for 13 compounds.

The list does not hold the whole screen: it is rich in T/C values a quarter to a half above the control, in often repeated tests (any T/C) and in doses without a T/C. Further doses and runs are listed elsewhere. T/C: endpoint of the treated group in % of that of the vehicle group. Some doses have a count of surviving animals in place of a T/C: the source holds a T/C of zero for them, seemingly a mark for toxic or unscored doses. Some survivor counts are full or nearly so, which does not show that the dose was tolerated: survival well below the control is almost never listed, so the zero probably covers shortened survival too. Survivors were counted at the toxicity check, usually on the fifth day, unless a day is given; later deaths do not show. Schedules are NCI's codes, taken here to give the interval after Q, in days (D) or hours (H), and the number of doses after X. Some schedule codes hold Z or #, which are not explained here. Some entries hold several experiments; the results are listed from low to high. Some structures stand for samples that the source files as different forms (salt, stereo form or complex); doses refer to the form tested. For survival time, this PubChem deposit counts one and a half times the control or more as active, and values a quarter to a half above the control carry no call in these data; other NCI protocols may use other cut-offs. Some T/C values carry the count of animals alive at the toxicity check (mostly the fifth day); where none is given, no animal had died by that day.

This experiment concerns L1210 leukemia ip in BDF1 mice, survival T/C. The experiment is described as follows: NCI In Vivo Anticancer Drug Screen. Data for tumor model L1210 Leukemia (intraperitoneal) in B6D2F1 (BDF1) mice. As to conditions: T/C endpoint: mean survival time, higher T/C = longer survival.
[1] abbreviates: dose: 400.0 mg/kg/injection, schedule: Q01DX001 (ip), vehicle: saline.
[2] abbreviates: dose: 20.0 mg/kg/injection, schedule: Q## X001 (ip), vehicle: saline.
Setting [3] is: dose: 25.0 mg/kg/injection, schedule: Q## X001 (ip), vehicle: saline.

Take `CC(=O)NC1CCCCC1c1ccc(C2CCCCC2NC(C)=O)cc1` (stereo unspecified): the survivor count under setting [1] was 0 of 6.
On to `CCCCCCC[CH2][Sn]([CH2]CCCCCCC)([NH]S(=O)(=O)c1ccc(C)cc1)[NH]S(=O)(=O)c1ccc(C)cc1`, for which the survivor count is 1 of 6 (dose: 75.0 mg/kg/injection, schedule: Q01DX009 (ip), vehicle: saline sonified); 2 of 6 (dose: 150.0 mg/kg/injection, schedule: Q04DX003 (ip), vehicle: Klucel (hydroxypropylcellulose) (HPC)); 1 of 6 (dose: 300.0 mg/kg/injection, schedule: Q04DX003 (ip), vehicle: Klucel (hydroxypropylcellulose) (HPC)).
On to `c1ccc(-c2ccno2)cc1`, for which the survivor count (dose: 150.0 mg/kg/injection, schedule: Q01DX009 (ip), vehicle: saline with Tween-80) is given as 0 of 6 and the survivor count (dose: 300.0 mg/kg/injection, schedule: Q01DX009 (ip), vehicle: saline with Tween-80) is on record as 0 of 6.
Take `c1ccc(CNCCCNCc2ccccn2)nc1`: where the note is “dose: 200.0 mg/kg/injection, schedule: Q01DX009 (ip), vehicle: saline with Tween-80”, the survivor count is 5 of 6.
In the case of `CCC(=O)C(c1ccccc1)(c1ccccc1)c1ccccc1`, the survivor count (dose: 400.0 mg/kg/injection, schedule: Q04DX002 (ip), vehicle: other) was 2 of 3.
Take `CCCCNC(=O)Oc1c(Cl)cc(Cl)c(Cl)c1[N+](=O)[O-]`: the survivor count reads like this: (dose: 100.0 mg/kg/injection, schedule: Q01DX009 (ip), vehicle: Klucel (hydroxypropylcellulose) (HPC)) 6 of 6; (dose: 200.0 mg/kg/injection, schedule: Q01DX009 (ip), vehicle: Klucel (hydroxypropylcellulose) (HPC)) 3 of 6; (dose: 400.0 mg/kg/injection, schedule: Q01DX009 (ip), vehicle: Klucel (hydroxypropylcellulose) (HPC)) 0 of 6.
Consider `Cc1ccc(NP(Br)(c2ccccc2)(c2ccccc2)c2ccccc2)cc1`, for which the survivor count runs as follows: (dose: 150.0 mg/kg/injection, schedule: Q01DX001 (ip), vehicle: acetone) 1 of 6; (dose: 300.0 mg/kg/injection, schedule: Q01DX001 (ip), vehicle: acetone) 0 of 6.
As to `COC(=O)[C@@H]1c2cc3c(c(O)c2[C@@H](OC2OC(C)C(OC)C(C)(OC)C2OC)C[C@]1(C)O)C(=O)c1c(O)cc2c(c1C3=O)O[C@H]1O[C@]2(C)[C@H](O)[C@@H](N(C)C)[C@@H]1O` (stereo partly specified), the T/C (dose: 1.0 mg/kg/injection, schedule: Q## X001 (ip), vehicle: saline) is recorded as 90, 93, 113, 121 % of control; the T/C (dose: 4.0 mg/kg/injection, schedule: Q## X032 (ip), vehicle: saline) was 128 % of control; the T/C (dose: 5.0 mg/kg/injection, schedule: Q## X001 (ip), vehicle: saline) is 90, 98, 109, 113 % of control; the T/C (dose: 10.0 mg/kg/injection, schedule: Q## X001 (ip), vehicle: saline) was 95, 106, 113, 121 % of control; the T/C (dose: 15.0 mg/kg/injection, schedule: Q## X001 (ip), vehicle: saline) is 90 [3 of 4 alive], 100 [2 of 3 alive], 109, 109 % of control [3 of 4 alive]; the T/C under setting [2] is 98 and 103 % of control. The T/C under setting [3] is 100 % of control [3 of 4 alive]. Moreover, the survivor count is 6 of 6 (dose: 3.0 mg/kg/injection, schedule: Q01DX Z (ip), vehicle: carboxymethylcellulose (CMC)); 4 of 6 (dose: 4.0 mg/kg/injection, schedule: Q01DX009 (ip), vehicle: saline); 4 of 6 (dose: 4.0 mg/kg/injection, schedule: Q01DX Z (ip), vehicle: carboxymethylcellulose (CMC)); 2 of 4 (dose: 12.0 mg/kg/injection, schedule: Q01DX001 (ip), vehicle: saline); 2 of 6 (dose: 15.0 mg/kg/injection, schedule: Q01DX001 (ip), vehicle: saline); 2 of 6 (dose: 16.0 mg/kg/injection, schedule: Q## X008 (ip), vehicle: saline). The survivor count reads like this: (dose: 16.0 mg/kg/injection, schedule: Q## X032 (ip), vehicle: saline) 1 of 6; (dose: 20.0 mg/kg/injection, schedule: Q01DX001 (ip), vehicle: saline) 0 of 6; under setting [2], 1 of 4 and 2 of 4; (dose: 24.0 mg/kg/injection, schedule: Q## X008 (ip), vehicle: saline) 0 of 6; (dose: 25.0 mg/kg/injection, schedule: Q01DX001 (ip), vehicle: saline) 0 of 6; under setting [3], 1 of 4, 2 of 4, 3 of 4. In addition, the survivor count (dose: 30.0 mg/kg/injection, schedule: Q01DX001 (ip), vehicle: saline) was 0 of 6; the survivor count (dose: 30.0 mg/kg/injection, schedule: Q## X001 (ip), vehicle: saline) is 0 of 4, 1 of 4, 2 of 4; the survivor count (dose: 32.0 mg/kg/injection, schedule: Q## X008 (ip), vehicle: saline) is given as 0 of 6.
`CN(C)[C@@H]1C(=O)C(C(=O)NCNC(CO)(CO)CO)=C(O)[C@@]2(O)C(=O)C3=C(O)c4c(O)cccc4[C@@](C)(O)[C@H]3C[C@@H]12`: the survivor count by setting is: (dose: 56.0 mg/kg/injection, schedule: Q01DX Z (ip), vehicle: saline) 6 of 6; (dose: 240.0 mg/kg/injection, schedule: Q01DX Z (ip), vehicle: saline) 4 of 6; (dose: 400.0 mg/kg/injection, schedule: Q01DX009 (ip), vehicle: saline) 2 of 6; (dose: 448.0 mg/kg/injection, schedule: Q01DX Z (ip), vehicle: saline) 0 of 6; (dose: 480.0 mg/kg/injection, schedule: Q01DX Z (ip), vehicle: saline) 0 of 6; (dose: 960.0 mg/kg/injection, schedule: Q01DX Z (ip), vehicle: saline) 0 of 6. Besides, the T/C (dose: 200.0 mg/kg/injection, schedule: Q01DX009 (ip), vehicle: saline) is 125 and 128 % of control [4 of 6 alive].
Regarding `Cc1cc(=O)[nH]c(O)c1C(=O)CC(=O)c1ccccc1`, the survivor count under setting [1] is recorded as 1 of 6.
Regarding `CC(=O)c1cc(I)c(O)c2ncccc12`, the survivor count runs as follows: (dose: 50.0 mg/kg/injection, schedule: Q04DX003 (ip), vehicle: saline with Tween-80) 2 of 6; (dose: 100.0 mg/kg/injection, schedule: Q04DX003 (ip), vehicle: saline with Tween-80) 0 of 6; (dose: 200.0 mg/kg/injection, schedule: Q04DX003 (ip), vehicle: saline with Tween-80) 0 of 6; (dose: 400.0 mg/kg/injection, schedule: Q04DX003 (ip), vehicle: saline with Tween-80) 0 of 6.
Take `NC(=S)Nc1ccccc1`: the survivor count is 0 of 6 (dose: 100.0 mg/kg/injection, schedule: Q01DX001 (ip), vehicle: saline); 0 of 6 (dose: 200.0 mg/kg/injection, schedule: Q01DX001 (ip), vehicle: saline); 0 of 6 under setting [1].
Consider `NC1CON(C(c2ccccc2)(c2ccccc2)c2ccccc2)C1=O` (stereo unspecified), for which the survivor count (dose: 400.0 mg/kg/injection, schedule: Q01DX001 (ip), vehicle: carboxymethylcellulose (CMC)) is recorded as 2 of 4.
